In the supplement of paper PMC12595434, “Development of retinoid nuclear receptor pathway antagonists through targeting aldehyde dehydrogenase 1A3” (iScience, 2025):
This is one part of the list. This is a noisy data set.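 Many melting curves are irregular; where none melted, Tm was taken as 64 °C.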

Amino acid sequences for entries named in this document (tags omitted). A change or cut given only in a name is not applied to a line headed by its entry.
UniProt Q96T51: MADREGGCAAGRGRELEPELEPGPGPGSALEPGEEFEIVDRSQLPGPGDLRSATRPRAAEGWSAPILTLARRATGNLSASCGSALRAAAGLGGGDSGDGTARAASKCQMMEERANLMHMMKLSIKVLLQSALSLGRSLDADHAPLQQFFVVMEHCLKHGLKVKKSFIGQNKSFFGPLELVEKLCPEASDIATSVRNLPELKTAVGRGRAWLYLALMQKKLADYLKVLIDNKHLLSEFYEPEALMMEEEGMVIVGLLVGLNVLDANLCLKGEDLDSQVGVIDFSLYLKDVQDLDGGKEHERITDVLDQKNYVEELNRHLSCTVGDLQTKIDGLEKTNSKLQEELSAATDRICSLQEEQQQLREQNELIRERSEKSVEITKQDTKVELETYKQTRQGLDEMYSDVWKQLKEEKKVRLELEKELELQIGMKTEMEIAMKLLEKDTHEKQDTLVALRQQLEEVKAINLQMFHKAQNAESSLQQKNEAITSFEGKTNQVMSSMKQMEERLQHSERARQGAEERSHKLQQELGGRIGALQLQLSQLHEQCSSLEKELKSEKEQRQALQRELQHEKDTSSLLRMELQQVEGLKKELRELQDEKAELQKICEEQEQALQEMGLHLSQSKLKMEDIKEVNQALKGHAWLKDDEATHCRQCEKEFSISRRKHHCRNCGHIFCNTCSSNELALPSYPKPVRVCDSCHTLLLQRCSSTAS
UniProt Q99459: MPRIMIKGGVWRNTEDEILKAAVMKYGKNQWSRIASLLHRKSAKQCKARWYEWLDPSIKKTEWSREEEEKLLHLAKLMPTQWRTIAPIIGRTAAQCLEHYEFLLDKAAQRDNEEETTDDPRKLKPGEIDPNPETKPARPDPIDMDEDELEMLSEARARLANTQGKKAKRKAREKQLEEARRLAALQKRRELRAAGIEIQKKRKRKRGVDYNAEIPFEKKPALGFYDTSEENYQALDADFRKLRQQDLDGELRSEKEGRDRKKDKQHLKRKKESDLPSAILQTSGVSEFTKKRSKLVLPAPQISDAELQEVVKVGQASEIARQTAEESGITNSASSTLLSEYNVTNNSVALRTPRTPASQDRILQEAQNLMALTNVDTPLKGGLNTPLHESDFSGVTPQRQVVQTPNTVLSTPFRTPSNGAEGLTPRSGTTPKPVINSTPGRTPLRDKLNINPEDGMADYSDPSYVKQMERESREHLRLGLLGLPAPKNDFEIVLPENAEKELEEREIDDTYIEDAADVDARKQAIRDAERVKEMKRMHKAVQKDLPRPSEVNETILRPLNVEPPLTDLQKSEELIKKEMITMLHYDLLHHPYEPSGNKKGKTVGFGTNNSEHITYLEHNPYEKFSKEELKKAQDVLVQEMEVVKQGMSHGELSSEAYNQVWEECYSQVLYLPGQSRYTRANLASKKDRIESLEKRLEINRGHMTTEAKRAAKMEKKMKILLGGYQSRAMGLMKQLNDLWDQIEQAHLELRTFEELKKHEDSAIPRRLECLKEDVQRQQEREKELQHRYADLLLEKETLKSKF
UniProt Q96I25: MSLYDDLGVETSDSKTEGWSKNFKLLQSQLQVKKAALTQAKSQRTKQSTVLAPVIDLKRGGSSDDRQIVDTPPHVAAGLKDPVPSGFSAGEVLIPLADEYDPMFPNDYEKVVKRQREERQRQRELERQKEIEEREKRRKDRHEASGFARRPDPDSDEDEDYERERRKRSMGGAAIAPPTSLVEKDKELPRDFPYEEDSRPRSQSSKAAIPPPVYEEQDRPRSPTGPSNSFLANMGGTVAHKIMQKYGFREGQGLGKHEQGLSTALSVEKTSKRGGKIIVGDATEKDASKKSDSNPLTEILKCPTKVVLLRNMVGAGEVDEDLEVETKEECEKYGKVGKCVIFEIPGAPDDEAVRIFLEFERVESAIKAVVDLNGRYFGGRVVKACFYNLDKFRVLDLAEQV
UniProt Q96IK1: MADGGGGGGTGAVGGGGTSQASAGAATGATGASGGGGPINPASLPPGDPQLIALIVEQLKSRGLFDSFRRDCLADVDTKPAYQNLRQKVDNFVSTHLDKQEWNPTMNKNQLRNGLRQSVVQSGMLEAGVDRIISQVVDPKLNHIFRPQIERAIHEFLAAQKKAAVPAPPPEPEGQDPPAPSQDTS
UniProt Q96K49: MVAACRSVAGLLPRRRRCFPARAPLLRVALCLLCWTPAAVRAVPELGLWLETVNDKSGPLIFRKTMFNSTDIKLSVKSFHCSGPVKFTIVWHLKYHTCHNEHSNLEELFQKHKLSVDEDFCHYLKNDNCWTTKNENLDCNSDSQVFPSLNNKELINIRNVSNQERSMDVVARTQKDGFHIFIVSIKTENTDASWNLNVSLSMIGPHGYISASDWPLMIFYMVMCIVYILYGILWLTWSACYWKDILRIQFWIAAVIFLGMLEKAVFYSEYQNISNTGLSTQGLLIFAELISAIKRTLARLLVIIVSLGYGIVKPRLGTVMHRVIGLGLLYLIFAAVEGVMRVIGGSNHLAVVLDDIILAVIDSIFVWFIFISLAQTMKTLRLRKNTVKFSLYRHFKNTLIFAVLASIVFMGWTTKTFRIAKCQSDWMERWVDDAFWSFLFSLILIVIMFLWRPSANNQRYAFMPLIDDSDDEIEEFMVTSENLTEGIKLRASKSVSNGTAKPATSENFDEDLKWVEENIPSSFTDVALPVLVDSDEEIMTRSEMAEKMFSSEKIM
UniProt Q96ME1: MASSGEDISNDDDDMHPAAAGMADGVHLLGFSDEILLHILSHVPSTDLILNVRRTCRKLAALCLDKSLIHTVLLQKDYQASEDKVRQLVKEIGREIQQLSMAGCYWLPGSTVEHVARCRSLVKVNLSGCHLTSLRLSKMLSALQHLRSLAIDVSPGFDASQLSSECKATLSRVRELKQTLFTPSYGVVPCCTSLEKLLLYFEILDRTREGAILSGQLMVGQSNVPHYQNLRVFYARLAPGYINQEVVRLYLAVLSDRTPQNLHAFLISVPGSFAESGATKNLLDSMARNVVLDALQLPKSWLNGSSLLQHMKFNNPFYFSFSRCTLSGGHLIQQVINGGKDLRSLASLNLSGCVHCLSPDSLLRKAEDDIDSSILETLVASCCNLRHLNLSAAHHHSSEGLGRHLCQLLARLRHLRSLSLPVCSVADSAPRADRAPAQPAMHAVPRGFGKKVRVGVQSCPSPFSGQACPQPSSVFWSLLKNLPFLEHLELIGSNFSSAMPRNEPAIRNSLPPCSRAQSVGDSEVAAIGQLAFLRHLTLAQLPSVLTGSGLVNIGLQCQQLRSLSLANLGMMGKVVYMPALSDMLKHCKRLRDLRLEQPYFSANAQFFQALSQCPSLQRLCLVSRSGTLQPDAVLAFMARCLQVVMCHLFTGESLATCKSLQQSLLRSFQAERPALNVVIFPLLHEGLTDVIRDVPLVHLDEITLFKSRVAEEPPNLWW
UniProt Q96I99: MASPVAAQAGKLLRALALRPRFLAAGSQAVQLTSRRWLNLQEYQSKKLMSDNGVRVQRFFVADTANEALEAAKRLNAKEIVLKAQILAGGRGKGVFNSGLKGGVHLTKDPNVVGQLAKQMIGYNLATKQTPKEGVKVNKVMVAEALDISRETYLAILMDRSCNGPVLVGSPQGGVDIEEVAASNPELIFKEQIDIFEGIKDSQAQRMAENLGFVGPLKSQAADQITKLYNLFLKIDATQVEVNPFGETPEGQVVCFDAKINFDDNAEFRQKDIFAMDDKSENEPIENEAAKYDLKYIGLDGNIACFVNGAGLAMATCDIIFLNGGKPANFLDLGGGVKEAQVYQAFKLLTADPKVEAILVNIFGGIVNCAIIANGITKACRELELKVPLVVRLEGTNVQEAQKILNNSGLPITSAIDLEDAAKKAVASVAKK
UniProt Q96ER3: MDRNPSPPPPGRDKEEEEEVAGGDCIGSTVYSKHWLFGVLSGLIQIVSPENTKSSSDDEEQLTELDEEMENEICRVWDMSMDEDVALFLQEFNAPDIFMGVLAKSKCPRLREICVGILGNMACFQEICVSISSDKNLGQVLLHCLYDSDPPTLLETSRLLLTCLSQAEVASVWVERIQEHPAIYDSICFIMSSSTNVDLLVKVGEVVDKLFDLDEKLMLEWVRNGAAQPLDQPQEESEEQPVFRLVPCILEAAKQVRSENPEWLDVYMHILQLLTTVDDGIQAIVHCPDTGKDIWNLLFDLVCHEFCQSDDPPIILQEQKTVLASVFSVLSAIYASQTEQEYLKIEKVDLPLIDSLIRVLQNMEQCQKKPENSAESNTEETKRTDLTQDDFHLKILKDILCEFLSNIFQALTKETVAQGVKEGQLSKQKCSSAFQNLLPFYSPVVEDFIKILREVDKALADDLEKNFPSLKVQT
UniProt Q96FZ2: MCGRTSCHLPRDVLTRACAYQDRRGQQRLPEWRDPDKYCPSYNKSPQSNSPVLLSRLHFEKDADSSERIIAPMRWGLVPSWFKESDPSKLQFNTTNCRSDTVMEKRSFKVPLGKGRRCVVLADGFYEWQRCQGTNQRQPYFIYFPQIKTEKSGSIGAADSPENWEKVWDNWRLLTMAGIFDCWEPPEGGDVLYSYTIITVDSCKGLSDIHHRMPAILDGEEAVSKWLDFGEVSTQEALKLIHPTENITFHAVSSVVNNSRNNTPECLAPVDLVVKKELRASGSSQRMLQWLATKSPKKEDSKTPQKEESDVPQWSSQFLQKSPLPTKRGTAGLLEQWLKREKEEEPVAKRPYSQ
UniProt Q96JB2: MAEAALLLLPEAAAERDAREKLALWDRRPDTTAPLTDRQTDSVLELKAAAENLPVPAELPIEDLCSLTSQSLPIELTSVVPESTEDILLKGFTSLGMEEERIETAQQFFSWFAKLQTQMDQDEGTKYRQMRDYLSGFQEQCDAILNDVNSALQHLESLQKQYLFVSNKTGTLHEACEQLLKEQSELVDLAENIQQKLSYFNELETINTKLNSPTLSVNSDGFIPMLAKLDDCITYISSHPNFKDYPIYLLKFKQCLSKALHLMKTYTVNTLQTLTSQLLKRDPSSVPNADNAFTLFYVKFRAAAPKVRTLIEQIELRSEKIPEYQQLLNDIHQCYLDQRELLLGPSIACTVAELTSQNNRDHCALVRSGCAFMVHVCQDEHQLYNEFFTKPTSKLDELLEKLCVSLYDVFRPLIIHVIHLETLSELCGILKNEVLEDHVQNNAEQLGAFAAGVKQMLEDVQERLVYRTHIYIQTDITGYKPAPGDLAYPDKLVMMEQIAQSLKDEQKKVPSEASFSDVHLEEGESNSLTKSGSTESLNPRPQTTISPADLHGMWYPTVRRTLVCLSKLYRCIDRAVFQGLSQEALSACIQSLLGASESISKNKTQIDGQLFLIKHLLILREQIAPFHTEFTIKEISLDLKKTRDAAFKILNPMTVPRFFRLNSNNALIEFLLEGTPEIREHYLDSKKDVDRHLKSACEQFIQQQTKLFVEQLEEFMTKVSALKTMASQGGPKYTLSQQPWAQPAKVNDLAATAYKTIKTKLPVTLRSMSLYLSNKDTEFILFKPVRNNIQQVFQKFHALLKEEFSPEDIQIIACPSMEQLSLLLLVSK

Compound: CCc1cnccc1C(=O)Nc1cc2c(cc1F)NC(=O)CC2
Test: melting temperature shift (DMSO Tm minus MBE1-treated Tm) in cellular thermal proteome profiling; higher = less thermal stabilization by MBE1 (negative = stabilized by MBE1)
Settings: A375

| Target | melting temperature shift (MBE1 concentration: 100 nM) [°C] | melting temperature shift (MBE1 concentration: 1 uM) [°C] |
| --- | --- | --- |
| RUFY1 (UniProt Q96T51) | -0.616 | -0.979 |
| CDC5L (UniProt Q99459) | -0.397 | -0.186 |
| RBM17 (UniProt Q96I25) | -0.593 | -0.819 |
| UniProt Q96IK1 | -3.82 | -3.72 |
| TMEM87B (UniProt Q96K49) | 0.0122 | 1.42 |
| FGD4 (UniProt Q96M96) | -0.729 | -1.43 |
| FBXL18 (UniProt Q96ME1) | -0.154 | -0.21 |
| SUCLG2 (UniProt Q96I99) | -0.214 | 0.128 |
| SAAL1 (UniProt Q96ER3) | 1.73 | 0.446 |
| HMCES (UniProt Q96FZ2) | -1.23 | -0.762 |
| COG3 (UniProt Q96JB2) | -0.278 | -0.296 |
| IPO9 (UniProt Q96P70) | -0.822 | 0.134 |

Some of the entries so far, bar-delimited:
Target | melting temperature shift (MBE1 concentration: 100 nM) [°C] | melting temperature shift (MBE1 concentration: 1 uM) [°C]
CDC5L (UniProt Q99459) | -0.397 | -0.186
RBM17 (UniProt Q96I25) | -0.593 | -0.819
